Measured values taken from patent US20160289316A1 (STOWERS INSTITUTE FOR MEDICAL RESEARCH, published 2016).
Results are given in words; binding and its absence hold for the method and conditions named. Some entries that bind do so weakly or less than the wild type.

The chains behind the UniProt entries cited, without tags or fusion partners.
UniProt O75197: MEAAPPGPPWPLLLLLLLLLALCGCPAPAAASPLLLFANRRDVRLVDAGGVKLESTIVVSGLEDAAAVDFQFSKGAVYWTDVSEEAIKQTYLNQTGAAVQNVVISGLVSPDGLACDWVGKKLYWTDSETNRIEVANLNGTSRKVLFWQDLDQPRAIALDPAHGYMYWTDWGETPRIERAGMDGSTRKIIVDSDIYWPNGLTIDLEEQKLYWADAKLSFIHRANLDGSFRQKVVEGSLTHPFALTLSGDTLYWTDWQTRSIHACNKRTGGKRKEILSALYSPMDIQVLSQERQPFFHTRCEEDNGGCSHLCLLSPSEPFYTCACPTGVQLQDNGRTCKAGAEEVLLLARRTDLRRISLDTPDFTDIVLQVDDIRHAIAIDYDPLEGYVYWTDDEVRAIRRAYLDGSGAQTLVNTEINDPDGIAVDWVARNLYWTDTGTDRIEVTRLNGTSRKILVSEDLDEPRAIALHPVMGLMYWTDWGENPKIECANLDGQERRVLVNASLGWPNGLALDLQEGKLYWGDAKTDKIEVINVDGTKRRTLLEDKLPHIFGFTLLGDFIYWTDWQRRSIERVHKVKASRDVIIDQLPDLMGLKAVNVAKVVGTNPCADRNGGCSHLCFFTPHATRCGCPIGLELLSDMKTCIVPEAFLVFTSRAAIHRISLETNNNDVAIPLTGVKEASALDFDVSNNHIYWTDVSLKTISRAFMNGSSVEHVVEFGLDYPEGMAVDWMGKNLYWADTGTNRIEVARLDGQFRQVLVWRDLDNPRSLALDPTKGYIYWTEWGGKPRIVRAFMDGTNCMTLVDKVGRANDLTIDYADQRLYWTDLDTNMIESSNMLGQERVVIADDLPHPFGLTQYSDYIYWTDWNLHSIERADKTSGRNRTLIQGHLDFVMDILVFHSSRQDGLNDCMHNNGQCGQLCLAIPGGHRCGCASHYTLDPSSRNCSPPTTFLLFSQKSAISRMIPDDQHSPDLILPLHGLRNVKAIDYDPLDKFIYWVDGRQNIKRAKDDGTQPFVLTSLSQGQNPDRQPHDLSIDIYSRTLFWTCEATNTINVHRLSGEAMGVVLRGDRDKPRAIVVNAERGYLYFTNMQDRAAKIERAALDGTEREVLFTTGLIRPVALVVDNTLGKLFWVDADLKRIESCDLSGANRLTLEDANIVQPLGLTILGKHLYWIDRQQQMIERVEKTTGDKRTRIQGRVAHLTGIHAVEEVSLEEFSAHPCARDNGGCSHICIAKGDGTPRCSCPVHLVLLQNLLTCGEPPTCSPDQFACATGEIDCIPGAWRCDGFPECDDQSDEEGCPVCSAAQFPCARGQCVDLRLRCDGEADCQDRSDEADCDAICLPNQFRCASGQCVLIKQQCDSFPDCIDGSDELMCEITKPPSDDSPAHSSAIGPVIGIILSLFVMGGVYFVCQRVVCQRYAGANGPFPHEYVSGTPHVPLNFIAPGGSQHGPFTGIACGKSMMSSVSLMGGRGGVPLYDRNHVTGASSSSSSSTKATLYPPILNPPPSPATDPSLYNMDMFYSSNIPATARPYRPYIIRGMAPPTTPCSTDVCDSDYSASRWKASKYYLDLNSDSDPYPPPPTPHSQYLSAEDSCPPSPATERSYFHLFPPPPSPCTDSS

Columns and labels:
[1] = target: LRP5-Myc (human) (UniProt O75197); assay: immunoprecipitation (FIG. 2H)
[2] = target: LRP5-Myc (human) (UniProt O75197); assay: immunoprecipitation
[3] = target: LRP5-Myc (human) (UniProt O75197); assay: immunoprecipitation, anti-Flag M2 affinity gel, 293 cell supernatants (FIG. 2H)

binding [1]: binds
binding [2]: binds
binding [3]: binds
B1: SOST-Flag (ligand, mouse, UniProt Q99P68 24-211, looked up)
chain: QGWQAFRNDATEVIPGLGEYPEPPPENNQTMNRAENGGRPPHHPYDAKDVSEYSCRELHYTRFLTDGPCRSAKPVTELVCSGQCGPARLLPNAIGRVKWWRPNGPDFRCIPDRYRAQRVQLLCPGGAAPRSRKVRLVASCKCKRLTRFHNQSELKDFGPETARPQKGRKPRPGARGAKANQAELENAY
notes: mature; This entry was not used because neither its species nor its tie to the assay construct is stated; also called pCS2+SOST; not shown: Flag tag at the 3' end of the reading frame
